Results taken from PubChem BioAssay AID1345085 (National Center for Advancing Translational Sciences (NCATS), 2018).
The inconclusive results got no clear call from the source; some entries with a clear call stand among them for comparison. Potencies of inconclusive entries are doubtful fits and often do not repeat. Calls of active or inactive are those of the source. Calls follow the shape of the dose curve; as a rule, active = well fitted cell-killing curve with a large enough effect; inconclusive = small, poorly fitted or top-dose-only effect, or effect the other way; inactive = no such curve, though single readings can be large or run the other way.

Tested on: HeLa
Experiment: Confirmatory qHTS for gynecologic anti-cancer compounds from libraries of approved drugs and bioactive compounds; also: nearly all actives have a fitted effect of over 55% in size
Settings: gynecologic cancer cell panel viability, ATPlite luminescence, 48 h; series mostly up to 57.6 µM; activity change, negative = viability loss: at the top concentration
In short: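 Cells (1,000/well) plated 16 h, then exposed 48 h at 37 °C to 11 concentrations (1:3) from 57.5 uM to 0.977 nM. Viability by ATPlite luminescence after 15 min; IC50 derived, with HEK 293T used for selectivity index.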
% is scaled to controls: 0 for no effect and ±100 for the full control effect; potency is read from the fitted curve at half-maximal effect.

SMILES | activity change, negative = viability loss | Potency
CCCCN(CCCC)C(=O)CN1C[C@H](c2ccc3c(c2)OCO3)[C@@H](C(=O)O)[C@@H]1c1ccc(OC)cc1 | inactive: 11.9% | –
O=c1[nH]c(=O)n([C@H]2C[C@H](O)[C@@H](CO)O2)cc1Br | – | inconclusive: 0.0769 µM [rising, partial curve, poor fit]
CN(Cc1cnc2nc(N)nc(N)c2n1)c1ccc(C(=O)N[C@@H](CCC(=O)O)C(=O)O)cc1 | inactive: 28.4% | –
CCCC(=O)O[C@]1(C(=O)CCl)[C@@H](C)C[C@H]2[C@@H]3CCC4=CC(=O)C=C[C@]4(C)[C@@]3(F)C(=O)C[C@@]21C | – | inconclusive: 34.3 µM [cytotoxic, single point]
CN(C)/N=N/c1nc[nH]c1C(N)=O | – | inconclusive: 10.9 µM [cytotoxic, partial curve]
CC(C)(C)C(=O)OCOP(=O)(COCCn1cnc2c(N)ncnc21)OCOC(=O)C(C)(C)C | – | inconclusive: 0.0012 µM [rising, full curve, poor fit]
NC(=O)c1ccc2nc(-c3ccc(Oc4ccc(Cl)cc4)cc3)[nH]c2c1 | – | inconclusive: 13.7 µM [cytotoxic, full curve]
COc1ccc(-c2cc3nccn3c(Nc3ncccc3C(N)=O)n2)cc1OC | – | inconclusive: 5.44 µM [cytotoxic, full curve]
Cc1nc(NC(=O)N2CCCC2C(N)=O)sc1-c1ccnc(C(C)(C)C(F)(F)F)c1 (stereo not drawn) | – | active: 19.3 µM
CCC(=O)N1CCN(c2ccc(-n3c(=O)ccc4cnc5ccc(-c6cnc7ccccc7c6)cc5c43)cc2C(F)(F)F)CC1 | – | inconclusive: 0.703 µM [cytotoxic, full curve]
CC1(C)[C@@H](O)CC[C@]2(C)[C@H]3C(=O)C=C4[C@@H]5C[C@@](C)(C(=O)O)CC[C@]5(C)CC[C@@]4(C)[C@]3(C)CC[C@@H]12 | inactive: 44.9% | –
CN(C)C(CCOc1cccc2ccccc12)c1ccccc1 (stereo not drawn) | – | inconclusive: 30.6 µM [cytotoxic, single point]
CCc1c2c(nc3ccc(O)cc13)-c1cc3c(c(=O)n1C2)COC(=O)[C@]3(O)CC | – | inconclusive: 7.69 µM [cytotoxic, full curve]
O=C(NOC[C@H](O)CO)c1ccc(F)c(F)c1Nc1ccc(I)cc1F | – | inconclusive: 17.2 µM [cytotoxic, partial curve]
COCCOc1nc(-c2ccc(Cl)c(Cl)c2)n(-c2ccc(NC(=O)CCl)cc2)n1 | – | active: 24.3 µM
O=c1cc(CN2CCOCC2)occ1OCCCCCSc1ccnc2cc(C(F)(F)F)ccc12 | – | inconclusive: 5.44 µM [cytotoxic, full curve]
Nc1ccc(C(=O)Nc2cccc(-c3nc(N4CCOCC4)c4oc5ncccc5c4n3)c2)cn1 | – | active: 7.69 µM

SMILES | activity change, negative = viability loss | Potency
COc1ccc(-c2ccc3c(N4CCOCC4C)nc(N4CCOCC4C)nc3n2)cc1CO (stereo not drawn) | – | inconclusive: 0.306 µM [cytotoxic, full curve]
CN(C)CC/C=C1\c2ccccc2COc2ccccc21 | inactive: -17.2% | –
CCN1C[C@H](C)n2c(c(O)c3c(=O)n(Cc4ccc(F)c(Cl)c4)nc(C(=O)NC)c32)C1=O | – | inconclusive: 0.0061 µM [rising, full curve]
Cc1c(C)n(Cc2ccc(-c3ccccc3C(=O)O)cc2)c2ccc(C(=O)N[C@@H](C)c3ccc([N+](=O)[O-])cc3)cc12 | – | inconclusive: 1.37 µM [cytotoxic, full curve, poor fit]
COc1cc(N2CCC(N(C)C)CC2)ccc1Nc1ncc(Cl)c(Nc2ccccc2P(C)(C)=O)n1 | – | active: 1.37 µM
O=C(NCC(O)CO)c1ccncc1Nc1ccc(I)cc1F (stereo not drawn) | – | inconclusive: 6.85 µM [cytotoxic, partial curve]
CN1CCN(CCOc2cc(OC3CCOCC3)c3c(Nc4c(Cl)ccc5c4OCO5)ncnc3c2)CC1 | inactive: 1.73% | –
c1cc(N[C@@H]2CCNC2)nc(-c2cnc3ccc(-c4cn[nH]c4)cn23)c1 | – | inconclusive: 24.3 µM [cytotoxic, single point]
CN1CCN(c2cccc(Nc3nc4c(-c5ccc(S(C)(=O)=O)cc5)cccn4n3)c2)CC1 | – | inconclusive: 24.3 µM [cytotoxic, partial curve, poor fit]
C1CCC(C(CC2CCCCN2)C2CCCCC2)CC1 (stereo not drawn) | – | inconclusive: 43.2 µM [cytotoxic, single point]
CC(C)[C@@H](CS(=O)(=O)C(C)C)N1C(=O)[C@@](C)(CC(=O)O)C[C@H](c2cccc(Cl)c2)[C@H]1c1ccc(Cl)cc1 | – | inconclusive: 27.3 µM [cytotoxic, partial curve]
COc1ccc2c(c1)c(CC(=O)O)c(C)n2C(=O)c1ccc(Cl)cc1 | – | inconclusive: 17.2 µM [cytotoxic, partial curve, poor fit]
CCN[C@H]1C[C@H](C)S(=O)(=O)c2sc(S(N)(=O)=O)cc21 | inactive: -6.16% | –
CC(=O)Nc1cccc(-n2c(=O)n(C3CC3)c(=O)c3c(Nc4ccc(I)cc4F)n(C)c(=O)c(C)c32)c1 | inactive: -19.4% | –
Cc1cnc(CNC(=O)c2c(=O)c3ccc(N4CCCN(C)CC4)nc3n3c2sc2ccccc23)cn1 | inactive: -3.33% [at 10.7 µM] | –
CC1=C(/C=C/C(C)=C/C=C/C(C)=C/C(=O)Nc2ccc(O)cc2)C(C)(C)CCC1 | – | active: 24.3 µM

Eight successive entries out of the list so far, quoted:
SMILES | activity change, negative = viability loss | Potency
NC(=O)c1ccc2nc(-c3ccc(Oc4ccc(Cl)cc4)cc3)[nH]c2c1 | – | inconclusive: 13.7 µM [cytotoxic, full curve]
COc1ccc(-c2cc3nccn3c(Nc3ncccc3C(N)=O)n2)cc1OC | – | inconclusive: 5.44 µM [cytotoxic, full curve]
Cc1nc(NC(=O)N2CCCC2C(N)=O)sc1-c1ccnc(C(C)(C)C(F)(F)F)c1 (stereo not drawn) | – | active: 19.3 µM
CCC(=O)N1CCN(c2ccc(-n3c(=O)ccc4cnc5ccc(-c6cnc7ccccc7c6)cc5c43)cc2C(F)(F)F)CC1 | – | inconclusive: 0.703 µM [cytotoxic, full curve]
CC1(C)[C@@H](O)CC[C@]2(C)[C@H]3C(=O)C=C4[C@@H]5C[C@@](C)(C(=O)O)CC[C@]5(C)CC[C@@]4(C)[C@]3(C)CC[C@@H]12 | inactive: 44.9% | –
CN(C)C(CCOc1cccc2ccccc12)c1ccccc1 (stereo not drawn) | – | inconclusive: 30.6 µM [cytotoxic, single point]
CCc1c2c(nc3ccc(O)cc13)-c1cc3c(c(=O)n1C2)COC(=O)[C@]3(O)CC | – | inconclusive: 7.69 µM [cytotoxic, full curve]
O=C(NOC[C@H](O)CO)c1ccc(F)c(F)c1Nc1ccc(I)cc1F | – | inconclusive: 17.2 µM [cytotoxic, partial curve]
